The values that follow come from the supplement of paper PMC7024190.

The other results are listed elsewhere or left out. Single values are uncertain here, since repeats match poorly.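 The cells were human embryonic kidney cells carrying a Renilla luciferase gene, driven by the HSV-TK promoter, on a plasmid put in briefly by transfection. This is the first-round screen of about ten thousand compounds, looking for ones that raise reporter output.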

In the assay the test system is HEK 293FT. Put plainly: log relative Renilla luciferase luminescence (reporter expression vs reference, reference not stated) (log (base not stated)); higher = higher recombinant reporter expression. The note with it: 10 µM; time after transfection 48 h. How it is done: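 HEK 293FT cells transiently transfected with pRL-TK (Renilla luciferase) were treated with compounds at 10 uM and luminescence was read about 42 h later. Values are log relative Renilla luminescence (log base and reference not stated). Single-pass screen; 2080 natural products library.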
Consider `CC(C)=CCc1cc(-c2coc3cc(O)c(CC=C(C)C)c(O)c3c2=O)ccc1O` [Lupalbigenin], for which the log is -0.0367.

For the compound `COc1cc2c(c(OC)c1OC)-c1c(cc3c(c1OC)OCO3)C[C@H](C)[C@](C)(O)C2` [Gomisin A], the log was -0.42. Next, `COc1cc(OC)c2c(c1)O[C@@]1(c3ccc(OC)c(OC)c3)[C@H](c3ccccc3)[C@@H](C(=O)N(C)C)[C@@H](O)[C@@]21O` [3'-Methoxyrocaglamide]: -1.18; `C=C(C)C1CCC2C(=CCC3(C)C(C(C)CCC=C(C)C(=O)O)CCC23C)C1(C)CCC(=O)O` (configuration not stated) [Kadsuric acid]: 0.0352; `COc1ccc2ccc(=O)oc2c1C(C=O)=C(C)C` [Murralongin]: -0.262. With `C[C@H]1[C@H](C)CC[C@]2(C(=O)O)CC[C@]3(C(=O)O)C(=CC[C@@H]4[C@@]5(C)CC[C@H](O[C@@H]6O[C@H](CO)[C@@H](O)[C@H](O)[C@H]6O)C(C)(C)[C@@H]5CC[C@]43C)[C@H]12` [Quinovic acid 3-O-beta-D-glucoside], the log was -0.232. Next, `CC[C@](C)(O)C(=O)N[C@H]1CCCN1C(=O)/C=C/c1ccccc1` [Odorinol]: 0.0737; `COC(=O)c1ccc2[nH]c3ccccc3c2c1` [Methyl 3-carbazolecarboxylate]: -0.071; `C=C(C(=O)O)[C@H]1C=C2[C@@H](C)CCC[C@]2(C)CC1` [Pterodontic acid]: -0.602. Next, `COc1cc(O)c2c(=O)c(OC)c(-c3ccc(O)c(OC)c3)oc2c1` [Pachypodol]: -0.0942; `C[C@@H]1[C@H]2[C@H](O[C@@H]3O[C@H](CO)[C@@H](O)[C@H](O)[C@H]3O)OC=C(C(=O)O)[C@H]2C[C@@H]1O` [Loganic acid]: 0.0322. For the compound `CC(O)CC1CCCCN1C` (single isomer, unassigned; (-)) [(-)-N-Methylsedridine], the log was found to be 0.19.

`CC(=O)O[C@H]1[C@H](OC(C)=O)[C@]2(C)O[C@]3(CC[C@]2(C)[C@H]2[C@H](OC(=O)c4cccnc4)CC=C(C)[C@]12C)COC(=O)C3` [Scutebata F]: the log stood at 0.122. Next, `CC1(C)O[C@H](COc2c3occc3cc3ccc(=O)oc23)C(C)(C)O1` [Heraclenol acetonide]: -0.195; `COC1=CC(=O)C(C(=O)/C=C/c2ccccc2)=C1O` [Lucidone]: -0.331; `C=C(C)[C@H](CC=C(C)C)Cc1c(O)cc(O)c2c1O[C@H](c1ccc(O)cc1OC)CC2=O` [Leachianone A]: -0.131. With `C=C1C(=O)O[C@H]2C[C@@H]3[C@@]4(CC[C@]5(C)[C@H]([C@@H](C)CC/C=C(\C)C=O)CC[C@@]35C)C[C@]4(CCC(=O)OC)[C@@H]12` [Coronalolide methyl ester], the log worked out at 0.0106. As for `C=C1C(=O)O[C@@H]2/C=C(/C)[C@@]3(O)C=C[C@@](C)(C[C@@H](OC(=O)C(C)C)[C@@H]12)O3` [Tagitinin F], the log is -0.0748. Next, `CC1=CC(=O)CC(C)(C)[C@@]1(O)/C=C/[C@H](O)CO` [Cucumegastigmane I]: -0.0169; `C=C1C(=O)[C@]23C[C@H]1C[C@H](OC(C)=O)[C@H]2[C@]1(C)[C@@H](OC(C)=O)C[C@H](O)C(C)(C)[C@H]1C(=O)[C@@H]3OC(C)=O` [Adenanthin]: -1.38; `O=C(/C=C/c1ccc(O)cc1)NCCc1ccc(O)cc1` [N-p-trans-Coumaroyltyramine]: -0.382. As to `CC(=O)O[C@@H]1CC[C@]2(C)[C@H]3CC[C@@H]4[C@@H]([C@]5(C)CC[C@@H](C(C)(C)O)O5)CC[C@@]4(C)[C@]3(C)CC[C@H]2C1(C)C` [Cabraleadiol 3-acetate], the log is 0.0826. Next, `CC1(C)C=Cc2c(c(O)cc3ccc(=O)oc23)O1` [Norbraylin]: -0.341. Next, `COC(=O)C1=CO[C@@H](O[C@@H]2O[C@H](CO)[C@@H](O)[C@H](O)[C@H]2O)[C@@H]2[C@@H](C)[C@@H](O)C[C@H]12` [Loganin]: -0.318; `C[C@H]1[C@H](C)CC[C@]2(C(=O)O)CC[C@]3(C)C(=CC[C@@H]4[C@@]5(C)CC[C@H](O)C(C)(C)[C@@H]5CC[C@]43C)[C@H]12` [Ursolic acid]: -0.189. On to `CC(=O)c1cc(O)c2c(c1)C=CC(C)(C)O2` [De-O-methylacetovanillochromene], for which the log is -0.0599. For `O=C(OCc1ccccc1O[C@@H]1O[C@H](CO)[C@@H](O)[C@H](O)[C@H]1O)c1c(O)cccc1O[C@@H]1O[C@H](CO)[C@@H](O)[C@H](O)[C@H]1O` [Henryoside], the log was 0.106.
